## Percent effect of library compounds

By UniProt entry, the sequences of proteins in these tests, tags left out. Residues count along the entry.
UniProt Q8IDJ8, 1-583: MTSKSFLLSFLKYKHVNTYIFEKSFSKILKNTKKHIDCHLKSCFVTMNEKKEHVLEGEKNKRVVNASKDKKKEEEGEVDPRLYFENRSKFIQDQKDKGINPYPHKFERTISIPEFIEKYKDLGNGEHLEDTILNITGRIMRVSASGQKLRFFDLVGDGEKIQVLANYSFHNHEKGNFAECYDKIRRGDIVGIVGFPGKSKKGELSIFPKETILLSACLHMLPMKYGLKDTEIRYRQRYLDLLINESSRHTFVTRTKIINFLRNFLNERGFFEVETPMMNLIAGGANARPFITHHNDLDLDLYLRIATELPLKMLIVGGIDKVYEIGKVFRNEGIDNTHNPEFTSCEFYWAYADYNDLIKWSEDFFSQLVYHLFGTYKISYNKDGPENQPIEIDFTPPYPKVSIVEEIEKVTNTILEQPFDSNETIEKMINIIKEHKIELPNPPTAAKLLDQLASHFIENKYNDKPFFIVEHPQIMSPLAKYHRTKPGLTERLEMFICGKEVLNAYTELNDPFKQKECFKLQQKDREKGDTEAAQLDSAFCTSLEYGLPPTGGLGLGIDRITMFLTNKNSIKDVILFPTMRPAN
UniProt P9WFT3, whole entry: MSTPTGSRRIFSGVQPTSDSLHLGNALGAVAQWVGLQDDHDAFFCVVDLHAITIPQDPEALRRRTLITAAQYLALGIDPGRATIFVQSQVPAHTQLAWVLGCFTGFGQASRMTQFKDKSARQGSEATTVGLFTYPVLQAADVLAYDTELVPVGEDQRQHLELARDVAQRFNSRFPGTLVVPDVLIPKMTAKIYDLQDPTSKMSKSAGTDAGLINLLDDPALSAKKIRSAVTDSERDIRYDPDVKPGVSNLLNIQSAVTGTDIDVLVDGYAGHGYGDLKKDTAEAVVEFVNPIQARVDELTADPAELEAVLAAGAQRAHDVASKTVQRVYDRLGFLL
UniProt P9WPC5, whole entry: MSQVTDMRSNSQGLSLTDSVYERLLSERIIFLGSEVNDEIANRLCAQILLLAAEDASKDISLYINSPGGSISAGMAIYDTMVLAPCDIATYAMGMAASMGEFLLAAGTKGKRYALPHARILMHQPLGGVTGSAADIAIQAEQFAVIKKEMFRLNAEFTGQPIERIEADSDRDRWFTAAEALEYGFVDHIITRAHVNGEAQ
UniProt P9WPC3, whole entry partner: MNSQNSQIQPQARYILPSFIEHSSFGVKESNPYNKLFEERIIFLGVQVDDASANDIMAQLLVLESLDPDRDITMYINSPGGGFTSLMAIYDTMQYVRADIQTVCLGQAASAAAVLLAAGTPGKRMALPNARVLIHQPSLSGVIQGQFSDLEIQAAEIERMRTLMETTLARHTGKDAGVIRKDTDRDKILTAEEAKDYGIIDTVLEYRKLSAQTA
UniProt Q4DA54, 1-478: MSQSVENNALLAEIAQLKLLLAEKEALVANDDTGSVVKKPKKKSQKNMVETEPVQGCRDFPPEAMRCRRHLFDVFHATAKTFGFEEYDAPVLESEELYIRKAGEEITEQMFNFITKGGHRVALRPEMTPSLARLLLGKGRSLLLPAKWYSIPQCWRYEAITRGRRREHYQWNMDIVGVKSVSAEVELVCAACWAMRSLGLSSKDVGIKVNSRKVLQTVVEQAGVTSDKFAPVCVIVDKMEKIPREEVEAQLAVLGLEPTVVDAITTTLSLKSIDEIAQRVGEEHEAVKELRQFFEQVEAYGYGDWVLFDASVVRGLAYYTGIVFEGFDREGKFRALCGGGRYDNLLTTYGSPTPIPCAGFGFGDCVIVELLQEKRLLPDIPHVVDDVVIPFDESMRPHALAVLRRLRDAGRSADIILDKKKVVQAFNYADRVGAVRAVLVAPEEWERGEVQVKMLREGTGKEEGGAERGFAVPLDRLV

PfKRS1: 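Lysine-tRNA ligase, Plasmodium falciparum 3D7 (UniProt Q8IDJ8). Enzyme assay of the cytosolic lysyl-tRNA synthetase in 384-well plates, read by luminescence. Concentration: 30 µM. Higher reads as stronger inhibition, judged from the few compounds that gave an IC50. Size under these conditions: about 69,000 compounds, about 49 of them at 50% or above in at least one test.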
MtTrpRS: 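Enzyme assay of tryptophanyl-tRNA synthetase; the read-out is not stated. Target: Tryptophan-tRNA ligase, Mycobacterium tuberculosis (UniProt P9WFT3). Tested at 10 µM. Direction is not recorded; retested compounds ran higher, which suggests that high means inhibition. Size under these conditions: about 65,000 compounds, about 64 of them at 50% or above in at least one test.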
ClpP1P2: 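ClpP1P2, Mycobacterium tuberculosis (UniProt P9WPC5 and UniProt P9WPC3). Protease assay of ClpP1P2, read by the AMC dye that it sets free. Compounds at 50 µM. Direction is inferred from only a few compounds that gave an IC50; most scored high, so higher reads as stronger inhibition. Most other retested compounds had strongly negative values. About 69,000 compounds were tested under these conditions; 0.015% (about 10) showed 50% or more at least once.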
TcHisRS: 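Histidine-tRNA ligase, Trypanosoma cruzi CL Brener (UniProt Q4DA54). Enzyme assay of histidyl-tRNA synthetase; the read-out is not stated. Compounds at 30 µM. Higher reads as stronger inhibition (inferred: compounds with an IC50 in retests scored well above the rest). Size under these conditions: about 69,000 compounds, about 31 of them at 50% or above in at least one test.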

The filed quantity is “Percent Effect” (%).
The record does not define 0% and 100%; most values in the screen are far below 50% and negative numbers occur (in some assays of this library far below -100).
The compounds are a random part of those screened.
A dash means the value is not listed here; it may have been measured.

Compound | PfKRS1 | MtTrpRS | ClpP1P2 | TcHisRS
CN1CCc2c(C#N)c(NCc3ccncc3)n3cnnc3c2C1 | 7.603 | 4.022 | -79.51 | 2.439
Cc1ccc(NC2CCN(C(=O)c3cc[nH]n3)CC2)nn1 | 1.419 | -2.516 | 8.096 | 3.422
Cc1nn(C)c(C)c1C1CCCN1CC(=O)Nc1ccncc1 (configuration not stated) | 3.588 | -4.304 | -1.849 | 4.511
CC(O)Cc1cn(CC2CCN(c3nccc4occc34)CC2)nn1 (configuration not stated) | -3.629 | 6.84 | -11.14 | -1.604
Cc1cc(N(C)Cc2cc(C(C)(C)C)n[nH]2)nc(-c2cccnc2)n1 | -1.274 | 10.65 | 25.28 | -4.545
Cc1ncc(C(=O)NCCNc2ncccc2C#N)s1 | -0.4446 | -2.401 | -30.61 | -3.779
CC(C)OCCC(=O)N(C)c1ccc(F)c(Cl)c1 | 0.3995 | 0.4914 | -1.771 | 4.972
CCn1c(Cn2cncn2)nnc1C1CCN(CCN)CC1 | 0.6501 | 0.3268 | -7.671 | 0
OC[C@H]1CCCN1c1nccc(-c2c[nH]nc2C2CCCCC2)n1 | 4.128 | - | 1.536 | 7.91
CN(C(=O)Nc1ccncc1)C1CCN(c2ccc(Cl)cc2)CC1 | 5.069 | 5.032 | 9.351 | 11.11
Cc1cc(N)nc(SC2CCN(c3ccccc3)C2=O)n1 (configuration not stated) | 0.9421 | -1.685 | 3.537 | 5.82
O=C(Nc1cc(-c2ccncc2)no1)C1CC1 | 9.326 | 2.478 | 1.152 | 8.995
COc1ccc(C)cc1CN(C)CC(=O)NC1(C)CCS(=O)(=O)C1 (configuration not stated) | 0.7176 | -3.516 | -35.94 | 4.52
COCC(NC(=O)NCc1cccc(C#N)c1)c1ccco1 (configuration not stated) | 0.8478 | -0.867 | -1.485 | 11.23
C=C(C)CN(CC)C(=O)c1cc(C)ccc1NS(C)(=O)=O | 4.921 | 0 | -8.866 | -3.061
CC(=O)N1CCCCCC1C1CCN(c2ncccc2C#N)CC1 (configuration not stated) | 0.406 | -4.457 | -214 | 4.734
O=C(Nc1cccnc1)[C@H]1CN(Cc2ccccn2)C[C@H]2OCC[C@@H]12 | 8.364 | -4.824 | -4.372 | 3.093
CC1(C)CN(C(=O)c2ccccc2-n2cncn2)CC1(C)O (configuration not stated) | -2.361 | 3.006 | 4.927 | 2.976
Cc1cc(CC(=O)NC2CCCN(c3ccccc3F)C2=O)n[nH]1 (configuration not stated) | -2.474 | 1.53 | -15.12 | 0.4975
CCc1cnc2c(c1NCc1ccc(OC)cc1)c(=O)n(C)c(=O)n2C | 2.128 | 2.348 | 14.05 | 6.533
CC(=O)N1CCN([C@@H]2CN(C(=O)c3ccccc3)C[C@H]2O)CC1 | -0.01526 | -7.884 | -16.12 | 12.41
Cc1noc(C)c1C(=O)N1C[C@H]2CC[C@@H]1CN(c1cnccn1)C2 | 3.065 | -1.986 | 6.027 | -9.574
CCCc1nnc(N2CCN(c3ccccc3OCC)CC2)o1 | 4.013 | 5.161 | 1.659 | 4.04
NS(=O)(=O)c1cccnc1NCc1ccco1 | 2.538 | 0.08157 | 21.82 | 7.216
Cc1nc(C2CCCN2C(=O)c2cc3c(s2)CCCC3)no1 (configuration not stated) | 0.2304 | -3.616 | 2.472 | -2.662
COCCNC(=O)c1nc(-c2ccc3cc[nH]c3c2)no1 | 5.504 | 3.291 | -6.515 | 1.754
CC(C)NC(=O)N1CCn2c(nnc2C2CCCN2)C1 (configuration not stated) | 5.065 | -1.988 | -3.569 | 5.325
Cn1cc(CN2CCC(c3ncc(Cl)cc3S(C)(=O)=O)CC2)cn1 | 0.7752 | -0.5875 | -11.75 | 4.52
CCCn1ccnc1CN1CCCC(O)(CN(C)C)CC1 (configuration not stated) | 5.096 | -3.286 | -4.624 | 3.879
Cc1cccc(-c2nc(CN3CCCCC3Cn3cncn3)no2)c1 (configuration not stated) | -5.736 | -4.717 | 3.222 | 5.703
CSC1=Nc2c(cnn2-c2ccccc2)C2=NCCCN12 | 2.824 | 2.161 | -4.042 | -2.959
CN1CCC(c2nc3ccc(-c4ccccc4)cn3n2)CC1 | 6.009 | -3.604 | -16.52 | 5.263
Cc1cc(CN2CCN(C(=O)NC(C)Cn3ccnc3)CC2)no1 (configuration not stated) | 0.6912 | -0.6289 | 10.01 | 2.662
Cc1cccc(C)c1Nc1noc2c1CN(C(=O)c1cn(C)cn1)CC2 | 4.379 | -0.8486 | -16.45 | 0
NS(=O)(=O)c1cnc(NCC2(c3ccccc3)CCC2)s1 | 2.529 | -1.421 | 7.701 | 4.712
CCOCCn1nc(C)cc1C(=O)N1C[C@@H](C)[C@](O)(C2CC2)C1 | 0.08579 | 4.565 | -14.46 | 3.518
CCc1ncncc1C(=O)N1CCN(Cc2ccco2)CC1 | -1.005 | 0.09747 | -4.443 | 2.273
CCc1ncc2c(n1)CN(C(=O)c1c(C)[nH]c(C(C)=O)c1C)C2 | 2.597 | 1.342 | 0.6489 | 6.897
Cc1ccnc(NCCCN2CCc3ccccc32)n1 | -1.052 | 1.713 | 33.7 | 18.56
N#Cc1cccc(CN2C(=O)c3ccccc3CS2(=O)=O)c1 | 3.465 | 2.943 | -8.753 | 3.509
CCNC(=O)CN1CCC(OCC2CCCO2)CC1 (configuration not stated) | 6.167 | -1.519 | -1.974 | 8.333
O=C(NC[C@H]1OC[C@@H](NCc2ccccc2F)[C@@H]1O)c1ccc(F)cc1 | 4.416 | -5.297 | -13.39 | 2.488
Cc1cnc(N2CCCn3c(nnc3CN(C)C(C)C)C2)nc1 | 4.494 | - | 10.27 | 8.889
COc1ncc(C)cc1NC(=O)COc1ccccc1F | 3.709 | -2.437 | -4.339 | 9.091
CC(C)c1ccc(C(CN)N2CCc3sccc3C2)cc1 (configuration not stated) | 2.487 | -5.768 | 2.436 | 11
O=C(NCCO)Nc1ccc(Br)c(F)c1 | 3.366 | -0.3666 | -1.524 | -0.9804
CCCc1nnsc1C(=O)NCC1CCN(S(C)(=O)=O)CC1 | 5.019 | -1.639 | 1.647 | 1.653
CC(C)C1CCCN1C(=O)c1ccc(-n2ncc(C#N)c2N)cc1 (configuration not stated) | 2.085 | -0.3096 | 1.737 | 6.494
Cc1cc(CN2CC[C@H]3C[C@H](c4nccs4)O[C@@H]3C2)no1 | -3.97 | 1.657 | -5.525 | 6.077
COc1ccccc1CCNC(=O)CNCC1CN(C)CCO1 (configuration not stated) | 2.706 | 0.9202 | -3.306 | 7.182
CCc1nc(NC2CCCN(C(=O)c3cccs3)C2)c2cnn(C)c2n1 (configuration not stated) | -1.97 | -7.235 | -3.793 | 0.9901
CCN(Cc1nc2c(cnn2C)c(=O)[nH]1)c1cccc(F)c1 | 6.339 | -2.827 | 9.714 | 3.383
Cc1nn(CC(C)C)c(C)c1CC(=O)N1CCCC(NS(C)(=O)=O)C1 (configuration not stated) | 4.159 | -4.977 | -4.329 | 5.941
Cc1nccc(C(=O)N2CCCC2c2c(C)nn(C)c2C)n1 (configuration not stated) | 2.038 | 16.61 | 19.83 | -1.69
O=C(O)C1CCN(C(=O)CCn2ccc3cc(Br)ccc32)CC1 | -0.09698 | 0.3501 | 7.874 | 2.924
CCn1cnnc1CNC(=O)N1CCOC(c2ccc(F)cc2)C1 (configuration not stated) | 4.758 | -1.891 | 5.714 | 11.11
CCC(CO)(CO)NC(=O)C1CCC(=O)N(CCc2ccccc2)C1 (configuration not stated) | 4.473 | 5.474 | -23.29 | 2.232
COc1ccc(SC(C)C(=O)N2CCC(C(N)=O)CC2)cc1 (configuration not stated) | -2.038 | -2.292 | -3.661 | 1.136
CCCC(C)(C)NC(=O)c1cnc(C)s1 | 6.731 | -0.9166 | 14.21 | 3.922
CCN(CC)CCN1CCO[C@H]2[C@@H](OCc3ccccn3)CC[C@@H]21 | 1.35 | 3.067 | -21.37 | 3.483
O=C(Cc1csc(-c2cccc(Cl)c2)n1)NCc1cccc(C(=O)O)c1 | 3.261 | 1.286 | -0.7329 | 10.89
Cc1noc(C)c1CN1CCC2(CC1)CC(Oc1cccnc1)C2 | 13.12 | 0.1079 | 3.388 | 5.063
Cc1ccc(F)cc1CC(=O)N(CCN1CCOCC1)Cc1ccco1 | 4.057 | 1.087 | -4.524 | 2.513

Source: ChEMBL document CHEMBL3988442, “University of Dundee, Small-Polar-MMV Screening Library” (2021).